# Experimental data published in PubChem BioAssay AID1347426 (Functional Genomics Laboratory (NCATS/FGL), 2020).
# In all, about 31,000 sequences went through this assay and about 1,400 (4.5%) were called active.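 The calls were made as follows: active = median seed-adjusted z-score above 1 or below -1; inactive = the rest.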 The list shows a part of the results.
# Assay: Novel Modifiers of Survival Motor Neuron (SMN) Protein: Gene Identification via Genome-wide siRNA Screen;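 also: luminescence tracks full-length SMN protein made from the SMN2 reporter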
# Settings: HEK293T SMN2-luciferase reporter, siRNA knockdown, 72 h; actives lie on both sides
# In short: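 HEK293T cells stably carrying an SMN2 promoter/splicing cassette–luciferase reporter were reverse-transfected with 1 pmol siRNA per well (druggable-genome library, 3 siRNAs per gene) and grown 72 h at 37 °C. Luminescence, normalized to negative-control siRNA and log10-transformed, was scored as MAD.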
row,Sequence,median seed-adjusted z-score
1,GGAAGAUCAUUGGGCGAUATT against ABCF2,inactive: 0.0696
2,CACUGAACCAUAUCGAUGATT against DUSP13,inactive: -0.772
3,ACCUCUACCUGUCCAGCAUTT against GHSR,inactive: 0.18
4,GAAUGCUCCUUUACCAGAATT against GRB10,inactive: -0.0341
5,CCAAGUUAAUGAACGAAGATT against STAM,inactive: 0
6,AAUGAGGACUGUGAACUGATT against MAPK13,inactive: -0.491
7,ACUGGAACCUCAAUAUCUATT against TSPAN17,inactive: -0.0774
8,GGGUGAUUGGGUUACAGCATT against TRIM6,inactive: -0.137
9,AGCCUUCUGUGCUAAAUCATT against ARRB2,inactive: -0.153
10,CGACACCAAUCAGAAUUCUTT against DAB2,inactive: 0.678
11,CAGUCAUUUUCUAACUGAATT against IL15,inactive: -0.139
12,CGCCUGCCCUGAUGACUUUTT against JAG2,inactive: -0.234
13,GGACCUGUAUUGGGAACAATT against ASPHD2,inactive: -0.719
14,CGAACAACCUUUCAAAUCATT against PCDHB10,inactive: -0.09
15,UCACGUAGAGUCAUAUUUATT against HNRPA1P4,inactive: -0.906
16,GCCUUCCUCUGGAUAUCAATT against RBPMS,inactive: 0
17,GCGUGUCUUUGAGCGGACATT against PRRX1,inactive: -0.172
18,CCAGCAAACUCAACCAACATT against KCNJ6,active: -1.6
19,CUACCUGUCUUAUUUCAUATT against PI4KA,inactive: 0
20,AGGCCUUGGUGGAACAUGUTT against PSAP,inactive: 0.107
21,GUUUCGUGGUUAAUAACCATT against DACH2,inactive: -0.00102
22,CAAUGAUUGACACCAAUGATT against MBNL1,inactive: 0.658
23,GCAUGCUACUAGCAUCUUUTT against GJA3,inactive: 0.833

row,Sequence,median seed-adjusted z-score
1,GGUGUAUUAUUUCUCGAAATT against RPA1,inactive: -0.27
2,CCCUAUCAAUUUCUAUGGATT against MPP4,inactive: 0.13
3,CAGAAGUCGUAGUCAUGAATT against RBM39,active: -1.82
4,GGACUUAAAACAAUGGUAUTT against PDE3B,inactive: -0.0475
5,GCACUCUUGUCAGACUUAATT against PRDX3,inactive: -0.0659
6,GCGUCUUCUUCAUCGUGUATT against TPCN1,inactive: 0.139
7,CACUCCAAGCGGAGACAGATT against FOS,inactive: 0.343
8,AGGCCACGCCCUACAACUATT against NDUFA3,inactive: -0.062
9,GCAAGCUUCUUGGUACAUUTT against DPYD,inactive: -0.112
10,ACAAAGAACAUGAUAACAATT against ZNF100,inactive: -0.209
11,CAUUUCAGAUGUAAAGAAUTT against ZNF138,inactive: -0.0937
12,GAGAAAAAUUCCUUAUAUUTT against NTS,inactive: 0.518
13,GCCUGGAACCAAGUACAUATT against TNN,inactive: -0.122
14,GAGAGAACAUCAUCACCUATT against CDH24,inactive: 0.31
15,GUCUGAAUGUCGAAGAGAATT against G3BP1,inactive: -0.593
16,GAAGUUCACUUACCAAACATT against CNKSR3,inactive: 0
17,GAGCGGAUGUUGUCAUGAATT against TMPRSS11D,inactive: -0.0643
18,CAACUGUCCCGGAGACAAUTT against CTGF,inactive: -0.181
19,GGACGAGAAUGGGAAGAUUTT against ARD1A,active: -1.05
20,GUGUAUUGUUUGGAAAGAATT against KLRF1,inactive: 0.00941
21,CACAUAAGCCUGAAAUCAATT against F2,inactive: 0.286
22,GUAUGGAUAUGGAUAUGGATT against RBM3,inactive: 0.0539
23,AGAACGGAGCUUCAAGUCATT against ZDHHC12,inactive: -0.0312

row,Sequence,median seed-adjusted z-score
1,GGCUUAUAUCAGUAGCAAUTT against DICER1,inactive: 0.101
2,AGAUGCCGGUGCAAGUUCATT against FXYD1,inactive: 0.276
3,GGACUCUAAUUCCAAAGCUTT against DBX2,inactive: 0.244
4,GGCAAGCACUGACUAACAATT against CP,inactive: 0.188
5,CAAAUGGAGAGAUAUCAUATT against PCDHB15,inactive: 0.0154
6,CAAUGACCGUAACCCACAATT against TMEM123,inactive: 0.292
7,UGCUUAUCCUGGUAAAAUATT against CCRL2,inactive: 0.575
8,GCCUAUAGAGGAUCAGUUATT against PCMTD1,inactive: 0.0312
9,GCAGCUUCAUAACCGAAGATT against PARP1,inactive: -0.0913
10,CACCCAUCCUUAAUACGAUTT against HOXB13,inactive: -0.136
11,GGACCAUUCAGGAGGCUGATT against CHP,inactive: -0.35
12,GGUCCCAGCUUGAAGAGAATT against CSTB,active: 1.08
13,GGAGGACGAGAAUAGCUCATT against LRTM2,inactive: 0.465
14,GGAGAUACUUAGUAAUAGATT against SMARCA5,inactive: -0.0804
15,GUUGAUAUCUGGAACAUGATT against DTNB,inactive: -0.142
16,GGACCAUCGCUAACGACGATT against GUCA2B,inactive: -0.146
17,CCCUUACCAUGGACAUCUATT against TGM1,inactive: -0.286
18,CCAGCAAGUUUUAUGCGAATT against KPNB1,inactive: 0.165
19,GGAAAUUAGCUGCAGCUGATT against PPP1R2,inactive: 0.208
20,GGCGAGAGCUACAAACUGATT against GUCA1B,inactive: 0
21,GGUCUCUUCUGGUCUCUGATT against BAAT,inactive: 0.641
22,GAACGAAUUGACAAACAAATT against IL6,inactive: -0.436
23,GAUAUUGACUGGAUAGACATT against MYO10,inactive: 0.8

# Another view of some results above:
row	Sequence	median seed-adjusted z-score
4	GGCAAGCACUGACUAACAATT against CP	inactive: 0.188
5	CAAAUGGAGAGAUAUCAUATT against PCDHB15	inactive: 0.0154
16	GGACCAUCGCUAACGACGATT against GUCA2B	inactive: -0.146
